From paper doi:10.1101/2023.07.11.548616
These are yes or no findings as the source states them, for the method shown. Binding seen in cells or lysates may run through a third protein. A yes stands for co-enrichment or nearness to the bait. Other partners may have been found. A no says only that the protein was not detected with the bait. For some of these results: Where a sequence is shown, tags or fusion partners need not be part of it.

Assays:
GFP BUB3.1 = target: T1, GFP BUB3.1 (UniProt Q9LJN8); assay: affinity purification with mass spectrometry
T1 sequence: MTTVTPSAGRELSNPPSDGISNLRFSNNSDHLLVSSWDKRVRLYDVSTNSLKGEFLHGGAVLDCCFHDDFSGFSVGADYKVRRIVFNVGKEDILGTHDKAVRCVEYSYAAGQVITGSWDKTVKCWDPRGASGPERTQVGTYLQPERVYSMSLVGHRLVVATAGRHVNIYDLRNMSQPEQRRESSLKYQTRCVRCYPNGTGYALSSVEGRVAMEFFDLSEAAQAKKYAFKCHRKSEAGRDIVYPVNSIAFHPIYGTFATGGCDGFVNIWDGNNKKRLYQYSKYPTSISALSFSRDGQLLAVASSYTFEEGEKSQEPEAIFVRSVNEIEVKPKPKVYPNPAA

[1] = target: AtMCRS1-GFP fusion protein (Arabidopsis thaliana); assay: affinity purification with mass spectrometry

## AtMCRS1 (endogenous) (A. thaliana (endogenous in the plants))
GFP BUB3.1
  binding: no binding

## DP1, a paralog of DRMY1 (A. thaliana (endogenous in the plants))
GFP BUB3.1
  binding: no binding

## Development Related Myb-like1 (DRMY1) (A. thaliana (endogenous in the plants))
GFP BUB3.1
  binding: no binding

B1: BUB3.1 (endogenous) (protein, UniProt Q9LJN8 1-340)
chain: T1 sequence
[1]
  binding: no binding
